1 substance from article PMC8790031 can be followed below.

Sequences of proteins named here, by UniProt entry; tags and fusion partners are left off. A change or cut given only in a name is not applied to a line headed by its entry.
UniProt Q8LJQ9: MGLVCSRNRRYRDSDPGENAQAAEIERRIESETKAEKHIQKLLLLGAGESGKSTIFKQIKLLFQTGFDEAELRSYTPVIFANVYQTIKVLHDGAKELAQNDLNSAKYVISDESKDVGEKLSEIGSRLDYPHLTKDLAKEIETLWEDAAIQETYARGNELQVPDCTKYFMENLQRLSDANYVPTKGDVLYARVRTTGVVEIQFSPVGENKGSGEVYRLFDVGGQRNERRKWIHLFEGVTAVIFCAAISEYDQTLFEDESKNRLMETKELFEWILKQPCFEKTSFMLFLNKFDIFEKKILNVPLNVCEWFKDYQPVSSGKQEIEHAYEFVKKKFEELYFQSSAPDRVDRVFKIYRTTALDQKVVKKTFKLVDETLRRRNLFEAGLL
UniProt Q8H6G2: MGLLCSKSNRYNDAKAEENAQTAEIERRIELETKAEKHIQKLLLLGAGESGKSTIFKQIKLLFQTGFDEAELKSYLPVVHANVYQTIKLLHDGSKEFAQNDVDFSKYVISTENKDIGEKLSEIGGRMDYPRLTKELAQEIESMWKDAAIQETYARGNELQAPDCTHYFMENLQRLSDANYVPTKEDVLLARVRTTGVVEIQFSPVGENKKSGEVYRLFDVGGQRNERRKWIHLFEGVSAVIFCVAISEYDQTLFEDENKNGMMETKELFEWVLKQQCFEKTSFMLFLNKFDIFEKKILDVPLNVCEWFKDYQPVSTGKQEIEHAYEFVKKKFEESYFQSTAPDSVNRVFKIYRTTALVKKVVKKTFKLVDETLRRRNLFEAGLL
UniProt A0A9D4WTS0: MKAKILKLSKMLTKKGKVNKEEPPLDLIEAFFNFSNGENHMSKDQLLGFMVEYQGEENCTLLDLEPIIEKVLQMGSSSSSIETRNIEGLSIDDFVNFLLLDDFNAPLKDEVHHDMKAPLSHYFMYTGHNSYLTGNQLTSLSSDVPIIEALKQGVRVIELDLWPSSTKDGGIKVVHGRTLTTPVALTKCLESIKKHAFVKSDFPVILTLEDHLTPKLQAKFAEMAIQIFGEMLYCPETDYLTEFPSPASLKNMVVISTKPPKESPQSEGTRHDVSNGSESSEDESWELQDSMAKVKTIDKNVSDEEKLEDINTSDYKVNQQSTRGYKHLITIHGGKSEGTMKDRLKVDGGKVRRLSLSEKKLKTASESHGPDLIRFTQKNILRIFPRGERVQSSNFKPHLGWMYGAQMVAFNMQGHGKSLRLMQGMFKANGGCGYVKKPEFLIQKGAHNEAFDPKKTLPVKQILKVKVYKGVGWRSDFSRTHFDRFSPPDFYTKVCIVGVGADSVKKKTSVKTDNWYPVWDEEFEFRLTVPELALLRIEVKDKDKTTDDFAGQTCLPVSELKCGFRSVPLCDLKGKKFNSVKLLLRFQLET

These are yes or no findings as the source states them, for the method shown. Binding seen in cells or lysates may run through a third protein. For some assays here: A result given as binding can be weak or reduced; the word gives no strength.

The target in assay [1] is PsG alpha 2 (Pisum sativum heterotrimeric G-protein alpha 2 subunit) (Pisum sativum) (UniProt Q8LJQ9). The assay is described as follows: co-IP; in vitro: soluble fractions of E. coli C41 lysates with 6xHIS- or 3xFLAG-tagged proteins mixed in pairs with uMACS MicroBeads (anti-HIS or anti-FLAG), 4 °C, 1.5 h; uMACS column, washed with lysis buffer; eluate analysed by Western blot. For orientation: Immunoblotting shows a protein as a band on a membrane.

Assay [2] addresses PsG alpha 1 (Pisum sativum heterotrimeric G-protein alpha 1 subunit) (Pisum sativum) (UniProt Q8H6G2). Described as above.

Regarding “PsPLC (Pisum sativum phospholipase C, PsPLC1) (from UniProt A0A9D4WTS0) (enzyme)”, the binding result was “binds” in assay [1] and “no binding” in assay [2].
